# Measurements taken from the supplement of paper PMC3682954.
# Structures can show the parent of a compound that is named as a salt. ± gives the standard deviation of the averaged measurements. The list shows a part of the results. Single values are uncertain, as repeats are few or missing.
# Tested on: RAW 264.7
# Test: HMGB1-induced TNF-alpha production relative to HMGB1-stimulated control; higher = more TNF-alpha secretion (less inhibition)
# Conditions: stimulus: HMGB1 5 ug/ml, 18 h
# [1] = compound concentration: 1 ug/ml
SMILES,HMGB1-induced TNF-alpha production (compound concentration: 3 uM),HMGB1-induced TNF-alpha production [1]
O=C(CCCCCN1CCN(c2ccccc2-c2ccccc2)CC1)NC1CCCc2ccccc21 (centres undefined) [LP 12 hydrochloride hydrate],97%,
Cc1cc2nc3c(=O)[nH]c(=O)nc-3n(C[C@H](O)[C@H](O)[C@H](O)CO)c2cc1C,95.2%,
CSC(=N)N [S-Methylisothiourea hemisulfate],111%,
CN(CCCN1c2ccccc2CCc2ccccc21)CC(=O)c1ccc(Cl)cc1,120%,
CN(C)CCOC(c1ccccc1)c1ccccc1.Cn1c(=O)c2[nH]c(Cl)nc2n(C)c1=O [Dimenhydrinate],70.9%,
CN(C)CCOC(c1ccccc1)c1ccccc1.Cn1c(=O)c2[nH]c(Cl)nc2n(C)c1=O,85.2%,
Cl.N[C@@H](CCC(=O)O)C(=O)O [L-Glutamic acid hydrochloride],83.4%,
O=C1NCC2(CCN(CCc3ccccc3)CC2)O1 [Fenspiride hydrochloride],85.9 ± 7.2%,
O=C1NCC2(CCN(CCc3ccccc3)CC2)O1,102%,
Clc1ccc2c(c1)CCc1cccnc1C2=C1CCNCC1 [Desloratadine],85.9 ± 3.1%,
Clc1ccc2c(c1)CCc1cccnc1C2=C1CCNCC1,97.5%,
CCCCCC(=O)OC1(C(C)=O)CCC2C3CCC4=CC(=O)CCC4(C)C3CCC21C (centres undefined) [17a-Hydroxyprogesterone hexanoate],,59%
CN(C)CCCc1cc(C(=O)Nc2ccc(-c3ccncc3)cc2)ccc1O,82.3%,
NC1CONC1=O (racemic) [DL-Cycloserine],84.6%,
CCc1nn(CCCN2CCN(c3cccc(Cl)c3)CC2)c(=O)n1CCOc1ccccc1 [Nefazodone],82.5 ± 16%,
CCc1nn(CCCN2CCN(c3cccc(Cl)c3)CC2)c(=O)n1CCOc1ccccc1 [Nefazodone HCl],65.5%,
O=S(=O)(c1cccc2cnccc12)N1CCCNCC1,94.2%,
COc1cc2nc(N3CCCN(C)CC3)nc(NC3CCN(Cc4ccccc4)CC3)c2cc1OC,99.4%,
CCCNC(C)(C)COC(=O)c1ccccc1 [Meprylcaine hydrochloride],148%,
"OC[C@H]1NC[C@@H](O)[C@@H]1O [1,4-Dideoxy-1,4-imino-D-arabinitol]",78%,
C[N+](C)(CCOc1ccccc1)Cc1ccccc1.O=C([O-])c1cc2ccccc2cc1O [Bephenium hydroxynaphthoate],106%,
Cc1nc2c([nH]1)c(=O)n(C)c(=O)n2Cc1ccco1 [Furafylline],103 ± 26%,

SMILES,HMGB1-induced TNF-alpha production (compound concentration: 3 uM),HMGB1-induced TNF-alpha production [1]
"CC(=O)O[C@H]1[C@H](C)OC=C[C@@H]1OC(C)=O [3,4-Di-O-acetyl-6-deoxy-L-glucal]",,104%
CC(NCCc1ccc(O)cc1)C(O)c1ccc(O)cc1 (centres undefined) [Ritodrine hydrochloride],43.6 ± 16%,
CC(NCCc1ccc(O)cc1)C(O)c1ccc(O)cc1 (centres undefined),50.5%,
NC[C@@H]1O[C@H](O[C@H]2[C@@H](O)[C@H](O[C@@H]3[C@@H](O)[C@H](N)C[C@H](N)[C@H]3O[C@H]3O[C@H](CN)[C@@H](O)[C@H](O)[C@H]3N)O[C@@H]2CO)[C@H](N)[C@@H](O)[C@@H]1O [Neomycin],118%,
NC[C@@H]1O[C@H](O[C@H]2[C@@H](O)[C@H](O[C@@H]3[C@@H](O)[C@H](N)C[C@H](N)[C@H]3O[C@H]3O[C@H](CN)[C@@H](O)[C@H](O)[C@H]3N)O[C@@H]2CO)[C@H](N)[C@@H](O)[C@@H]1O [Neomycin B sulfate; Neomycin Trisulfate],,70.6%
CC(=O)Nc1ccc(OC(C)=O)cc1,80.2%,
NC1CCN(c2c(F)cc3c(=O)c(C(=O)O)cn(C4CC4)c3c2Cl)C1 (centres undefined) [Clinafloxacin],108%,
CCC1(C)CC(=O)NC1=O (centres undefined),99.2%,
CCC1(C)CC(=O)NC1=O (centres undefined) [Ethosuximide],89.8 ± 16%,
COc1cc(CNC(=O)CCCCCCC(C)C)ccc1O [Dihydrocapsaicin],90.3%,46.8%
CCCc1nn(C)c2c(=O)[nH]c(-c3cc(S(=O)(=O)N4CCN(C)CC4)ccc3OCC)nc12 [Sildenafil],108 ± 33%,
NNC(=O)c1ccncc1.Nc1ccc(C(=O)O)c(O)c1,76.6%,
CCCCS(=N)(=O)CCC(N)C(=O)O [L-Buthionine-sulfoximine],91.9%,
COc1cccc(OC)c1OCCNCC1CSc2ccccc2O1 (centres undefined) [Benoxathian hydrochloride],74.7%,
C[C@@H]1CN(c2c(F)c(F)c3c(=O)c(C(=O)O)cn(C4CC4)c3c2F)C[C@H](C)N1,74.6%,
CCC(C)(C)C(=O)O[C@H]1C[C@@H](C)C=C2C=C[C@H](C)[C@H](CC[C@@H]3C[C@@H](O)CC(=O)O3)[C@H]21,130%,
CCC(C)(C)C(=O)O[C@H]1C[C@@H](C)C=C2C=C[C@H](C)[C@H](CC[C@@H]3C[C@@H](O)CC(=O)O3)[C@H]21 [Simvastatin],140 ± 31%,
CC(=O)Oc1ccc(C(c2ccc(OC(C)=O)cc2)c2ccccn2)cc1 [Bisacodyl],83.4 ± 12%,
CC(=O)Oc1ccc(C(c2ccc(OC(C)=O)cc2)c2ccccn2)cc1,87.1%,
O=C1Nc2ccc(Cl)cc2[C@@](C#CC2CC2)(C(F)(F)F)O1 [Efavirenz],75.3 ± 8%,
O=C1Nc2ccc(Cl)cc2[C@@](C#CC2CC2)(C(F)(F)F)O1,86.8%,
Nc1ccc(C(=O)O)c(O)c1 [4-aminosalicylic acid],119%,

SMILES,HMGB1-induced TNF-alpha production (compound concentration: 3 uM),HMGB1-induced TNF-alpha production [1]
Nc1ccc(C(=O)O)c(O)c1 [4-Aminosalicylic acid],86.6%,
Nc1ccc(C(=O)O)c(O)c1,82.8%,
CCCCCCCCCCCCCCCCCCNC(=O)OCC(COP(=O)([O-])OCC[n+]1ccsc1)OC (centres undefined),120%,
O=C(O)c1ccccc1Nc1cccc(C(F)(F)F)c1 [Flufenamic acid],86.1 ± 24%,
O=C(O)c1ccccc1Nc1cccc(C(F)(F)F)c1,104%,
CC[N+](C)(CC)CCC[n+]1c(-c2ccccc2)c2cc(N)ccc2c2ccc(N)cc21 [Propidium iodide],110%,
O=C(c1ccc(F)cc1)C1CCN(CCn2c(=S)[nH]c3ccccc3c2=O)CC1 [Altanserin],107%,
OCCc1ccccc1,96.5%,
CC(=O)Nc1ccc(S(=O)(=O)c2ccc(NC(C)=O)cc2)cc1,85.1%,
O=C1O[C@H]([C@@H](O)CO)C(O)=C1O [L(+)-Ascorbic acid],,71.8%
O=C1O[C@H]([C@@H](O)CO)C(O)=C1O,89.27 ± 0.58%,
O=C1O[C@H]([C@@H](O)CO)C(O)=C1O [Ascorbic acid],78.9%,
OC[C@H]1O[C@@H](Oc2cccc3cccnc23)[C@H](O)[C@@H](O)[C@@H]1O [8-Hydroxyquinoline beta-D-glucopyranoside],,70.1%
Clc1ccc(C(c2ccccc2Cl)C(Cl)Cl)cc1 (centres undefined),81.2%,
Clc1ccc(C(c2ccccc2Cl)C(Cl)Cl)cc1 (centres undefined) [Mitotane],101%,
"Clc1ccc(C(c2ccccc2Cl)C(Cl)Cl)cc1 (centres undefined) [1-(2-Chlorophenyl)-1-(4-chlorophenyl)-2,2-dichloroethane]",75.3%,
CC1=CC(=O)C2=C(C)CC[C@@H]3[C@H](OC(=O)[C@H]3C)[C@@H]12 [Leucomisine],139%,
CCc1cc(Cl)c(OC)c(C(=O)NC[C@@H]2CCCN2CC)c1O,98.1%,
CN(C)CCOC(=O)C(c1ccccc1)C1(O)CCCC1 (centres undefined),61.9%,
CN(C)CCOC(=O)C(c1ccccc1)C1(O)CCCC1 (centres undefined) [Cyclopentolate hydrochloride],121%,
Nc1ccc(/N=N/c2ccccc2)c(N)n1 [Phenazopyridine hydrochloride],87.1%,
Nc1ccc(/N=N/c2ccccc2)c(N)n1,79.8%,

# Exported bar-delimited: part of the list above
SMILES | HMGB1-induced TNF-alpha production (compound concentration: 3 uM) | HMGB1-induced TNF-alpha production [1]
CC[N+](C)(CC)CCC[n+]1c(-c2ccccc2)c2cc(N)ccc2c2ccc(N)cc21 [Propidium iodide] | 110% | 
O=C(c1ccc(F)cc1)C1CCN(CCn2c(=S)[nH]c3ccccc3c2=O)CC1 [Altanserin] | 107% | 

# As a working copy, some entries already given.
SMILES,HMGB1-induced TNF-alpha production (compound concentration: 3 uM),HMGB1-induced TNF-alpha production [1]
CCc1cc(Cl)c(OC)c(C(=O)NC[C@@H]2CCCN2CC)c1O,98.1%,
CN(C)CCOC(=O)C(c1ccccc1)C1(O)CCCC1 (centres undefined),61.9%,
CN(C)CCOC(=O)C(c1ccccc1)C1(O)CCCC1 (centres undefined) [Cyclopentolate hydrochloride],121%,

# Further records.

SMILES,HMGB1-induced TNF-alpha production (compound concentration: 3 uM),HMGB1-induced TNF-alpha production [1]
CCC(=O)O[C@]1(C(=O)SCF)[C@H](C)C[C@H]2[C@@H]3C[C@H](F)C4=CC(=O)C=C[C@]4(C)[C@@]3(F)[C@@H](O)C[C@@]21C,40.3%,
CCC(=O)O[C@]1(C(=O)SCF)[C@H](C)C[C@H]2[C@@H]3C[C@H](F)C4=CC(=O)C=C[C@]4(C)[C@@]3(F)[C@@H](O)C[C@@]21C [Fluticasone propionate],33.8%,
Nc1[nH]c(=O)ncc1F,95.3%,
OCCN1CCN(CC/C=C2/c3ccccc3Sc3ccc(Cl)cc32)CC1 [Zuclopenthixol hydrochloride],48.2%,
NCCCS(=O)(=O)O [3-Amino-1-propanesulfonic acid sodium],96.5%,
Nc1nc(/C(=C/CC(=O)O)C(=O)N[C@@H]2C(=O)N3C(C(=O)O)=CCS[C@H]23)cs1,92.6%,
COC(=O)C1=CO[C@@H](C)[C@@H]2CN3CCc4c([nH]c5cc(OC)c(OC)cc45)[C@H]3C[C@H]12 [Reserpiline],,70.1%
CC1=CC(=O)[C@H]2C[C@@H]1C2(C)C [L(-)-Verbenone],,80.2%
CCc1ccc(/C=C2/SC(=S)NC2=O)cc1,81.3%,
CCN(CC)CCNC(=O)c1cc(Br)c(N)cc1OC [Bromopride],98.7%,
CCN(CC)CCNC(=O)c1cc(Br)c(N)cc1OC,83.7%,
CCCCC(=O)N(Cc1ccc(-c2ccccc2-c2nnn[nH]2)cc1)[C@H](C(=O)O)C(C)C,91.5 ± 11%,
OC(CCN1CCCCC1)(c1ccccc1)c1ccccc1,81.7%,
OC(CCN1CCCCC1)(c1ccccc1)c1ccccc1 [Pridinol methanesulfonate salt],81.2%,
C=CCNc1ncnc2ccc(Br)cc12,89.6%,
O=C(O)c1cc(=O)c2ccccc2[nH]1 [Kynurenic acid],99.4%,
O=C(O)c1cc(=O)c2ccccc2[nH]1 [Kynurenic Acid],,54.9%
O=c1cc(-c2ccc(O)c(O)c2)oc2cccc(O)c12,,55.5%
CC(C)NNC(=O)c1ccncc1,88.2 ± 14%,
CC(C)NNC(=O)c1ccncc1 [Iproniazid phosphate],108%,
CC(C)NNC(=O)c1ccncc1 [Iproniazide phosphate],89.6%,
CC(C)NNC(=O)c1ccncc1 [Iproniazid],90.4%,
